Drawing on publication PMC3411842, this text covers binding for 1 substance.

The chains behind the UniProt entries cited, without tags or fusion partners. Where a name states a change or a piece, a line headed by the entry shows the natural chain unless it says otherwise. Residues count along the entry.
UniProt P70452, residues 1-274: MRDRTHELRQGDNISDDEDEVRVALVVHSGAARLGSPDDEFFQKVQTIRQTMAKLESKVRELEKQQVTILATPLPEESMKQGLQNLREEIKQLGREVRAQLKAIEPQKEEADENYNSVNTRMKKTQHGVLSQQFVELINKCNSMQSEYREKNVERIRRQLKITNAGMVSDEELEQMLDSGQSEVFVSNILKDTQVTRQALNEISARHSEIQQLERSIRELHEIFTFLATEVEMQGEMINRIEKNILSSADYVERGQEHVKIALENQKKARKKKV
UniProt Q9WV89: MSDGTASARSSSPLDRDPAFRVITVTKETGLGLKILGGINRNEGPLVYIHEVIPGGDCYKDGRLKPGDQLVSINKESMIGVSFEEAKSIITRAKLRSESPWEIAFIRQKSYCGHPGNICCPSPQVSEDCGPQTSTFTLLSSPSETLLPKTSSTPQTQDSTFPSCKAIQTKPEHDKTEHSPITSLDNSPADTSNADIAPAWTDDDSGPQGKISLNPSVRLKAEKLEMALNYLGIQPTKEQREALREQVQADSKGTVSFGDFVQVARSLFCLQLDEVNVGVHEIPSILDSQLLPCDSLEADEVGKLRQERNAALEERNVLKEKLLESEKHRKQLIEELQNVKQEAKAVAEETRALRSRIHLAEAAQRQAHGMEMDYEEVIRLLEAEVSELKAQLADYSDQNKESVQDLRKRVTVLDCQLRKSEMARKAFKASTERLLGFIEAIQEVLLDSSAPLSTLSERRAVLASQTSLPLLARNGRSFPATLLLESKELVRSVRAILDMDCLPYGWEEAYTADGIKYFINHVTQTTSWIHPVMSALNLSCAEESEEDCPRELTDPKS

The target in test [1] is GST-tagged syntaxin 4 (cytoplasmic portion) (UniProt P70452). The test is described as follows: pull-down; purified GST-syntaxin 4 on glutathione sepharose beads mixed with RIPA lysate of CHO cells expressing Flag-Synip WT or ΔWW, cells serum starved 4 h, with or without 100 nM insulin for 15 min; 2 h at 4°C; anti-Flag immunoblot; only the target purified.
Test [2] has the same target. The test is described as follows: pull-down; purified GST-syntaxin 4 on glutathione sepharose beads mixed with RIPA lysate of 3T3L1 adipocytes expressing Flag-Synip WT or ΔWW, basal state (serum starved 4 h); 2 h at 4°C; anti-Flag immunoblot, band densities quantified (n = 3); only the target purified. Background: In western blotting, separated proteins are transferred to a membrane and probed.

No constants are given. Whether binding was seen depends on the method and setting. In cells and extracts the contact can be indirect. Binding can be weak; no strength is given.

On to “Flag-tagged Synip ΔWW (Synip with the WW domain deleted) (from UniProt Q9WV89)”, for which the binding entry in test [1] and in test [2] was “binds” in each case.
